No constants are given. Whether binding was seen depends on the method and setting. Binding seen in cells or lysates may run through a third protein. Some results given as binding are weak or reduced against the parent protein; the word gives no strength.
T1: RIPK1 (mouse (endogenous in primary astrocytes)) (UniProt Q60855)
T1 sequence: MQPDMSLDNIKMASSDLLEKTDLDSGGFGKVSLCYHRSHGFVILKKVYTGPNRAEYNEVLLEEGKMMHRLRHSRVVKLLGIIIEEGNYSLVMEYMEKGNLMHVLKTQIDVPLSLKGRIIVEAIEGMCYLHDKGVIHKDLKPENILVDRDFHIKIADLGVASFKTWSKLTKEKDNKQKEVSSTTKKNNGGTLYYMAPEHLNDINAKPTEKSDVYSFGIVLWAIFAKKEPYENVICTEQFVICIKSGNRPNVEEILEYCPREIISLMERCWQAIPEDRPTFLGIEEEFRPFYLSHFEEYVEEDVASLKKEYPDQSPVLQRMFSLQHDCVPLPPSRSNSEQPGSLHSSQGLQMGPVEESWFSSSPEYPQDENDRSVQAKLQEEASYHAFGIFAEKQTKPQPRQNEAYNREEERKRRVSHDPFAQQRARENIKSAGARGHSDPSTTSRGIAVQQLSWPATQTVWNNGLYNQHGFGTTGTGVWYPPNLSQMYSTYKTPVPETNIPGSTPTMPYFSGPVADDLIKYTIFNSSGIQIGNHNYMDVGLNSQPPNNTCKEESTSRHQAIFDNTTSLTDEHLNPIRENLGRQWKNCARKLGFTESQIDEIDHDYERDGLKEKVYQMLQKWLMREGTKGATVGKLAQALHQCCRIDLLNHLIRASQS

The chains behind the UniProt entries cited, without tags or fusion partners.
UniProt P03995: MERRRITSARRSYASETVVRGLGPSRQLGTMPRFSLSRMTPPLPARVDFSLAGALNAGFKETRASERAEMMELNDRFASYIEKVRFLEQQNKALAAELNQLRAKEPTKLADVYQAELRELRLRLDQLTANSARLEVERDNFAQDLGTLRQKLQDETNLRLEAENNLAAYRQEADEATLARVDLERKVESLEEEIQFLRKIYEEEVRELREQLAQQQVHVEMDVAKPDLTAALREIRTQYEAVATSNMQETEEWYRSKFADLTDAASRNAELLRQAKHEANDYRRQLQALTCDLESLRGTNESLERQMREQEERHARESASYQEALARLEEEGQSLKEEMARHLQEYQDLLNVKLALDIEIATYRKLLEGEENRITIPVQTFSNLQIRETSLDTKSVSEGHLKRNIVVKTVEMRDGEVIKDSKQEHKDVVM


Tests used:
[1] = target: T1, RIPK1 (mouse (endogenous in primary astrocytes)); test: co-IP; anti-RIPK1 antibody on whole cell lysates (RIPA) of OTUD7B-sufficient and -deficient primary mouse astrocytes, GammaBind G Sepharose, 4 °C overnight, Western blot; TNF 20 ng/mL for up to 5 days (Fig. 7D) or 10, 20, 50 ng/mL for 5 days (Fig. 7H)
[2] = target: glial fibrillary acidic protein (GFAP) (mouse (endogenous in primary astrocytes)) (UniProt P03995); test: co-IP; anti-GFAP antibody on total protein lysates (RIPA) of primary mouse astrocytes stimulated with 50 ng/mL TNF for the indicated times, GammaBind G Sepharose, Western blot for GFAP, OTUD7B and K48 ubiquitin chains (Fig. 8F)

binding [1]	binding [2]	Binder
binds		TRAF2 (protein, UniProt P39429 1-501) MAAASVTSPGSLELLQPGFSKTLLGTRLEAKYLCSACKNILRRPFQAQCGHRYCSFCLTSILSSGPQNCAACVYEGLYEEGISILESSSAFPDNAARREVESLPAVCPNDGCTWKGTLKEYESCHEGLCPFLLTECPACKGLVRLSEKEHHTEQECPKRSLSCQHCRAPCSHVDLEVHYEVCPKFPLTCDGCGKKKIPRETFQDHVRACSKCRVLCRFHTVGCSEMVETENLQDHELQRLREHLALLLSSFLEAQASPGTLNQVGPELLQRCQILEQKIATFENIVCVLNREVERVAVTAEACSRQHRLDQDKIEALSNKVQQLERSIGLKDLAMADLEQKVSELEVSTYDGVFIWKISDFTRKRQEAVAGRTPAIFSPAFYTSRYGYKMCLRVYLNGDGTGRGTHLSLFFVVMKGPNDALLQWPFNQKVTLMLLDHNNREHVIDAFRPDVTSSSFQRPVSDMNIASGCPLFCPVSKMEAKNSYVRDDAIFIKAIVDLTGL
binds	binds	OTUD7B (enzyme, UniProt B2RUR8 1-840) MTLDMDAVLSDFVRSTGAEPGLARDLLEGKNWDVSAALSDFEQLRQVHAGNLSPPFSGGSTCPKTPEKGGSDREPTRPSRPILQRQDDVIQEKRLSRGISHASSSIVSLARSHVSSNGGGGGSSEHPLEMPICAFQLPDLTVYKEDFRSFIERDLIEQSMLVALEQAGRLNWWVSMDSTCQRLLPLATTGDGNCLLHAASLGMWGFHDRDLVLRKALYALMEKGVEKEALRRRWRWQQTQQNKESGLVYTEDEWQKEWNELIKLASSEPRMHLGSNGASGGGVESSEEPVYESLEEFHVFVLAHVLKRPIVVVADTMLRDSGGEAFAPIPFGGIYLPLEVPASQCHRSPLVLAYDQAHFSALVSMEQKESAKEQAVIPLTDSEHKLLPLHFAVDPGKGWEWGKDDNDNVRLASIILSLEVKLHLLHSYMNVKWIPLSSDSQAPLAQPESPTASAGDEPRSTPESGESDKESVGSSSLGNEGSRRKEKSKRDREKDKKRADSVANKLGSFGKTLGSKLKKNMGGLMHSKGPKPGGLGSGSGISSGTETLEKKKKNNTLKSWKGGKEEAAGDGPVSEKPPSESVGNGGSKYSQEVMQSLSTMRIAMQGEGKYIFVGTLKMGHRHQYQEEMIQRYLADAEERFLAEQKQKEVERKIMNGGLVSGPPPAKKPEPDGGEDQPSDSPAEPKAMAFSTAYPGGFTIPRPSGGGVHCQEPRRQLAGGPCVGGLPSYATFPRQYPGRPYPHQDNIPALEPGKDGVHRGALLPPQFRVADSYSNGYREPPEPDGWAGAPRGLPPTQTKCKQPNCSFYGHPETNNLCSCCYREELRRREREPGGELLAHRF

— PMC12537900
